Some of the results follow.

Sequences of proteins named here, by UniProt entry; tags and fusion partners are left off. A change or cut given only in a name is not applied to a line headed by its entry.
UniProt Q4G0F5, whole entry, looked up: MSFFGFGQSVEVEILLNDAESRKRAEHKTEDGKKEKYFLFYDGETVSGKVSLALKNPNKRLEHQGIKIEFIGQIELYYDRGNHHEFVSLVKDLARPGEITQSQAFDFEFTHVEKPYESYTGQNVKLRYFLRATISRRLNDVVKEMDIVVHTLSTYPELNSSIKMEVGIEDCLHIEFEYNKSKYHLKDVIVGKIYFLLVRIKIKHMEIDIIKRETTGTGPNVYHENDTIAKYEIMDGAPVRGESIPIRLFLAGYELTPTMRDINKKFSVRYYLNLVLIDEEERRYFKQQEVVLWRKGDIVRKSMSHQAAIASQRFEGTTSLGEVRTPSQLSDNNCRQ
UniProt O95785: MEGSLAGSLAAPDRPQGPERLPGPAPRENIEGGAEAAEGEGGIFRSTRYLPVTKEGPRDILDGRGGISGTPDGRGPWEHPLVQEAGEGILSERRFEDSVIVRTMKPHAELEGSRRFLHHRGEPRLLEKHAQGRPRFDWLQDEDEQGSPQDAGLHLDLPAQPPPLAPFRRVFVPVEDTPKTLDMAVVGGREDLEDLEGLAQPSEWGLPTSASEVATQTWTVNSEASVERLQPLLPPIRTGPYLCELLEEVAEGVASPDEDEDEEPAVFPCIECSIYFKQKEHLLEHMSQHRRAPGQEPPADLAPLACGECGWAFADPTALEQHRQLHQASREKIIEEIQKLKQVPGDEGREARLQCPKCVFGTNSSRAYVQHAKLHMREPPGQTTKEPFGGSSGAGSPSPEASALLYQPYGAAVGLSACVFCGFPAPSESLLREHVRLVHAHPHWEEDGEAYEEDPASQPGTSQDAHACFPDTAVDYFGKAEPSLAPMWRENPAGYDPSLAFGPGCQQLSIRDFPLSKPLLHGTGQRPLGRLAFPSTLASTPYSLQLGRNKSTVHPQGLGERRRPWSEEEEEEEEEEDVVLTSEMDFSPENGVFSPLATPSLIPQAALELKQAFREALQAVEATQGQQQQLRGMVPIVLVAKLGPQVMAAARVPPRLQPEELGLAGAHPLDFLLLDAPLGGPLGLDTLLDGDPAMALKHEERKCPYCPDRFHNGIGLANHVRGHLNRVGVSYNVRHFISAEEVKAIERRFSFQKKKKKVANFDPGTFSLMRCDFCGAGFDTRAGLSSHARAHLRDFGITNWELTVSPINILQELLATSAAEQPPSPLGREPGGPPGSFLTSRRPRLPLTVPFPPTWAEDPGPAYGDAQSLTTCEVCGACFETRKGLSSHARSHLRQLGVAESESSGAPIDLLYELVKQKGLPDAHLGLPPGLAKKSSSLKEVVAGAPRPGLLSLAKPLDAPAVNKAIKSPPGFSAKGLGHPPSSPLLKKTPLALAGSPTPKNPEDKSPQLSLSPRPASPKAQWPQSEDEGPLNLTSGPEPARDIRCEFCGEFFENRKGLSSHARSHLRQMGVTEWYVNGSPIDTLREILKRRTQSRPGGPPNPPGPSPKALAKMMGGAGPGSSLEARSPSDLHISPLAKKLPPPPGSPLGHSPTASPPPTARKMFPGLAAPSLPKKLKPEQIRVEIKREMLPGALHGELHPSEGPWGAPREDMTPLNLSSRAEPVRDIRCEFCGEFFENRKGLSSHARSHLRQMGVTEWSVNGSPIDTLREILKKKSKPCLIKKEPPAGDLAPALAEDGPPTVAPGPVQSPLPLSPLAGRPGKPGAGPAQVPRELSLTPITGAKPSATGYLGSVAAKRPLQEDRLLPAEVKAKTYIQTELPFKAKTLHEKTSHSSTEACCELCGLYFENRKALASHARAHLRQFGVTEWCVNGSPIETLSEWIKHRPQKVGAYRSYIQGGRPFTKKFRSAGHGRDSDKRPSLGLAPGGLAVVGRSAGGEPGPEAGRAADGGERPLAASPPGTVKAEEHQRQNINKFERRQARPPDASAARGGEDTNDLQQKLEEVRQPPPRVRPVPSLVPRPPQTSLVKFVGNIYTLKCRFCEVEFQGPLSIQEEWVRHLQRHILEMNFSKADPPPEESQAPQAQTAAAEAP
UniProt O00534: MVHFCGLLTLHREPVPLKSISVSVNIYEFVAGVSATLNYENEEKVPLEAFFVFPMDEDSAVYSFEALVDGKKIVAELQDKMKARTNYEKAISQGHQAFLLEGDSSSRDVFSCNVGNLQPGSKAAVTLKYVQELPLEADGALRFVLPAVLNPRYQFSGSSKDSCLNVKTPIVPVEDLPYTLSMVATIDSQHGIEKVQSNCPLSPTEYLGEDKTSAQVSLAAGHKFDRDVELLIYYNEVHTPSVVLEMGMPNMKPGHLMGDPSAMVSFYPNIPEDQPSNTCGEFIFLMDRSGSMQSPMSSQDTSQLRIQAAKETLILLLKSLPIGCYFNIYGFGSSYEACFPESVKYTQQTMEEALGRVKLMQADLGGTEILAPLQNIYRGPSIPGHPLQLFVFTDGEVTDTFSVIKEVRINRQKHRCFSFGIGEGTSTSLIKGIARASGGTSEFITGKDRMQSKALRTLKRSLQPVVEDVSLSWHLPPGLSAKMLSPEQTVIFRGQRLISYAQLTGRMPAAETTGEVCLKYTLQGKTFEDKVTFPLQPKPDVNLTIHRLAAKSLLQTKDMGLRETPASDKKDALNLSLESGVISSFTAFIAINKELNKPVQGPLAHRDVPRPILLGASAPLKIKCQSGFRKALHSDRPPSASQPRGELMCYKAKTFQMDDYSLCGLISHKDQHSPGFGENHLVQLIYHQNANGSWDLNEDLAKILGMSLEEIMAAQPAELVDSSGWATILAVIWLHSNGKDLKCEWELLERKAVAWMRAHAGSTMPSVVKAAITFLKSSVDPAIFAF
UniProt Q9NNW5: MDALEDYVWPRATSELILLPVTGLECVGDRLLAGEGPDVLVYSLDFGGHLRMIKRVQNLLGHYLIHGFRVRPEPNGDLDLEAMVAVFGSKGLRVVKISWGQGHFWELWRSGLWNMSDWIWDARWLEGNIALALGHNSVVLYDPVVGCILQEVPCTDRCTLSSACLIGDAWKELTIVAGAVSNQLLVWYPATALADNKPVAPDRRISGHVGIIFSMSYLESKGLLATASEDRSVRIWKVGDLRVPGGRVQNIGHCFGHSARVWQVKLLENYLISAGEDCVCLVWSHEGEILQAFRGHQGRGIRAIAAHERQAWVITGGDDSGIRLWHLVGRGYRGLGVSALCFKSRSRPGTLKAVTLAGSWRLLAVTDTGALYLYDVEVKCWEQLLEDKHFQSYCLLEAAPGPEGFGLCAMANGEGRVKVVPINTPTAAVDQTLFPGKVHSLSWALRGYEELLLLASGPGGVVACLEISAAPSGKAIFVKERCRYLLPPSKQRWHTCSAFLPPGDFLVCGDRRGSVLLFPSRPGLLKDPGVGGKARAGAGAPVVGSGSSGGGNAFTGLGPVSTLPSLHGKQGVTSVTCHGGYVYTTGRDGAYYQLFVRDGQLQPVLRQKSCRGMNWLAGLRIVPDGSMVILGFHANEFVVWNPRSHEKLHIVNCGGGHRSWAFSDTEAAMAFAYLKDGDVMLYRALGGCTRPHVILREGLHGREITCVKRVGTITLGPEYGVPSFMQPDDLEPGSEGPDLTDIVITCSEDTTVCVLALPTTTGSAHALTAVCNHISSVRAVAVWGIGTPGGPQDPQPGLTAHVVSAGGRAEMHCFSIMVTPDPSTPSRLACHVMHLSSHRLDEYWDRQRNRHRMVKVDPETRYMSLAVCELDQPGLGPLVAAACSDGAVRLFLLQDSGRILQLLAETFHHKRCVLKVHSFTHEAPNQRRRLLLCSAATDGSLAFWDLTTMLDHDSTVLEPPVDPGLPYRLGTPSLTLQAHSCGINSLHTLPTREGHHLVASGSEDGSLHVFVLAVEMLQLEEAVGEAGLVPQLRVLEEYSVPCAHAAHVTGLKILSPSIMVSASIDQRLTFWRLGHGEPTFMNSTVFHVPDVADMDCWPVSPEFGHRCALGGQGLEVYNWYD

Compound in the test: c1cn2cc(-c3ccc4cn[nH]c4c3)nc(Nc3ccc(N4CCOCC4)cc3)c2n1 [entospletinib]
In words: log2 fold change, soluble protein after heating vs DMSO (PISA); higher = thermal stabilisation; K562 cells, 10 uM, 30 min; active = over 0.2 and 3.5 SD of the protein, either way, in both replicates (recomputed). In a few lines:
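K562 cells at 2×10^6 cells/mL were treated with 10 μM compound for 30 min. Aliquots were heated for 3 min across 48°C-58°C, pooled, and extracted in PBS with 0.5% NP-40 at 4°C; soluble protein was the supernatant after 21,000xg for 90 min. Soluble protein was quantified by TMTpro 16plex LC-MS/MS with channel sums equalised, and reported as log2 fold change in thermal stability against DMSO controls, with values from duplicates.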
For VPS26B (UniProt Q4G0F5), the log2 fold change is inactive: -0.016.

On to WIZ (UniProt O95785), for which the log2 fold change is inactive: -0.006.

Regarding VWA5A (UniProt O00534), the log2 fold change is inactive: -0.022.

Turning to WDR6 (UniProt Q9NNW5), the log2 fold change is inactive: 0.034.

These data come from the supplement of paper PMC10849652.
